# Assay results: the supplement of paper PMC12823440, “Inhibitors supercharge kinase turnover through native proteolytic circuits” (Nature, 2025)
# Some of the results follow. The calls rarely recur for the same compound in another form.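 Kinases were expressed as nanoluciferase fusions in K562 cells and luminescence was read every 4 h between 2 and 18 h as percent of control, DMSO set to 100% and a positive control to 0%. A time point counts as decreased when the signal drops significantly (2 sigma). The hit call is the authors' own, does not follow from the count of time points alone, and its rule is not shown.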
# Molecular target: RAF1 (UniProt P04049)
# Assay: number of time points (of 5) at which kinase-Nluc abundance scored as decreased, DMSO-normalised (count); higher = more persistent destabilization
# Details: K562; 2-18 h
row,SMILES,number of time points
1,C[C@H]1CC[C@]2(NC1)O[C@H]1C[C@H]3[C@@H]4CC[C@H]5C[C@@H](O[C@@H]6O[C@H](CO)[C@H](O[C@@H]7O[C@H](CO)[C@@H](O)[C@H](O[C@@H]8OC[C@@H](O)[C@H](O)[C@H]8O)[C@H]7O[C@@H]7O[C@H](CO)[C@@H](O)[C@H](O)[C@H]7O)[C@H](O)[C@H]6O)CC[C@]5(C)[C@H]4CC[C@]3(C)[C@H]1[C@@H]2C [Tomatine] (2.5 µM),0
2,CCCCNc1nc(N)c2[nH]c(=O)n(Cc3ccc(C)nc3)c2n1 (10 µM),0
3,C[C@H](CCC(=O)O)C[C@H](C)C[C@H](C)C(=O)/C=C(\O)[C@H](C)C[C@H](C)C/C=C/[C@@H](C)[C@@H](O)[C@@H](C)[C@@H](O)C[C@@H]1CC[C@@](C)([C@H]2CC[C@@](C)([C@@H](C)O)O2)O1 [Ionomycin (calcium)] (2.5 µM),0
4,CCOC(=O)c1c(/C(C#N)=C\N)c2ccc(Cl)c(Cl)c2n1C (10 µM),0
5,CC(=O)OC(C)(C)/C=C/C(=O)[C@](C)(O)[C@H]1[C@H](O)C[C@@]2(C)[C@@H]3CC=C4[C@@H](C=C(O)C(=O)C4(C)C)[C@]3(C)C(=O)C[C@]12C [Cucurbitacin E] (2.5 µM),2
6,O=C1C=CC[C@@H]2[C@H]3CCCN4CCC[C@@H](CN12)[C@@H]34 [Sophocarpine (monohydrate)] (2.5 µM),0
7,C=CC(=O)Nc1ccc2[nH]c(=O)n(C3CCN(Cc4ccc(-c5nc6cc[nH]c(=O)c6cc5-c5ccccc5)cc4)CC3)c2c1 [Borussertib] (10 µM),0
